# Percent effect of library compounds

Protein sequences, listed by entry. Tags and fused reporters are not part of them. Residues count along the entry.
UniProt A4I591, 1-473: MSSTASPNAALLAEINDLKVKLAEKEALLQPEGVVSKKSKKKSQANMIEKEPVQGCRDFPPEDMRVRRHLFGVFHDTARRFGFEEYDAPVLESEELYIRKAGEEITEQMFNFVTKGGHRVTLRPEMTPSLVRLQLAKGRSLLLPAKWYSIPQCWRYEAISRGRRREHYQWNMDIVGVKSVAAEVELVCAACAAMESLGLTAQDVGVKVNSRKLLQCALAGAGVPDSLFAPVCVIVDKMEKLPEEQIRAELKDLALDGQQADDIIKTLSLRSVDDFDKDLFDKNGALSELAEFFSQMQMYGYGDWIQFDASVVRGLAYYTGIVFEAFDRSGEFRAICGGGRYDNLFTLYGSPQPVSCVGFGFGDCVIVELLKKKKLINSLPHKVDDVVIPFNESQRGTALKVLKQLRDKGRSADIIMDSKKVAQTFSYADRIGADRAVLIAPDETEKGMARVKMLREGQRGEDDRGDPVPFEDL
UniProt P9WNZ1, whole entry: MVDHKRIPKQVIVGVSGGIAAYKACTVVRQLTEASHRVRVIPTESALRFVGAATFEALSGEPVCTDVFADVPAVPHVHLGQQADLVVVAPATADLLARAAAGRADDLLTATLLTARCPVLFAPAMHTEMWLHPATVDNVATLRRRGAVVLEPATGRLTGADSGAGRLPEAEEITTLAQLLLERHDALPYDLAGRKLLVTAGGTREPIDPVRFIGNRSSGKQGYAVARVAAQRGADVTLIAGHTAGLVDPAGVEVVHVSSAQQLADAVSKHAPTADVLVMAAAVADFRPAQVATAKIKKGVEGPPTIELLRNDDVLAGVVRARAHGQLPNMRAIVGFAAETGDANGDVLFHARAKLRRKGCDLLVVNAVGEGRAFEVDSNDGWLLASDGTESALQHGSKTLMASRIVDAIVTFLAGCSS
UniProt Q8IDJ8, 1-583: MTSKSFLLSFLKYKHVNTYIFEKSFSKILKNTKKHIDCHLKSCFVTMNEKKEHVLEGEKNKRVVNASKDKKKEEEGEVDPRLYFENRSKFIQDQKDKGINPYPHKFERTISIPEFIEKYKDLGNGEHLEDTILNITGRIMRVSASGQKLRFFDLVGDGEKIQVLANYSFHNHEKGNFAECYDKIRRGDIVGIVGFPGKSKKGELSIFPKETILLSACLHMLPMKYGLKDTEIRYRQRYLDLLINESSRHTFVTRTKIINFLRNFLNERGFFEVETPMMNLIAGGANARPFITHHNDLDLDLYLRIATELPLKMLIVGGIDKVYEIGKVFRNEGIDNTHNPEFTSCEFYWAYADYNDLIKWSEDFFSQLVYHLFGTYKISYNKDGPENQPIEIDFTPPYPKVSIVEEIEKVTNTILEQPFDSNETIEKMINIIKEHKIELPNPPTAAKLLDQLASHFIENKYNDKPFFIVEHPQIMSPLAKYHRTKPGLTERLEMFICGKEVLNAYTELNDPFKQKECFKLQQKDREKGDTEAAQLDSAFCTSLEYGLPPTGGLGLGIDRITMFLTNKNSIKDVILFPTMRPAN
UniProt P9WFT3, whole entry: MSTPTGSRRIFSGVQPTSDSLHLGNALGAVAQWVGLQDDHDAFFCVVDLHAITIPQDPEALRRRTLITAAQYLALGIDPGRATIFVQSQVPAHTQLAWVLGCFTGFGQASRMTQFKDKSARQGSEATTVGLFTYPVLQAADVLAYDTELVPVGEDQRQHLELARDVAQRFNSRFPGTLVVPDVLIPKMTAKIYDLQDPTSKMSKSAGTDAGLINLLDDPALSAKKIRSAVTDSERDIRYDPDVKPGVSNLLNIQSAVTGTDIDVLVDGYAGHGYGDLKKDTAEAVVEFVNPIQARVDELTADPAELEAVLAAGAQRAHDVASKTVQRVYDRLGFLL

Measurements from “University of Dundee, Small-Polar-MMV Screening Library” (2021), ChEMBL document CHEMBL3988442.

A: 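Histidine-tRNA ligase, Leishmania infantum (UniProt A4I591). Enzyme assay of histidyl-tRNA synthetase; the read-out is not stated. Tested at 30 µM. Direction is inferred from retests: higher values go with stronger inhibition. The assay is labelled LdHisRS but filed under L. infantum. Size under these conditions: about 69,000 compounds, about 410 of them at 50% or above in at least one test.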
B: 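Enzyme assay of CoaBC with a phosphate dye (Biomol Green) read at 650 nm. Target: Coenzyme A biosynthesis protein CoaBC, Mycobacterium tuberculosis (UniProt P9WNZ1). Concentration: 30 µM. Higher reads as stronger inhibition, judged from the few compounds that gave an IC50. Most strong results did not repeat in a second test. Size under these conditions: about 67,000 compounds, about 40 of them at 50% or above in at least one test.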
C: 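Lysine-tRNA ligase, Plasmodium falciparum 3D7 (UniProt Q8IDJ8). Enzyme assay of the cytosolic lysyl-tRNA synthetase in 384-well plates, read by luminescence. Tested at 30 µM. Direction is inferred from only a few compounds that gave an IC50; most scored high, so higher reads as stronger inhibition. Size under these conditions: about 69,000 compounds, about 49 of them at 50% or above in at least one test.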
D: 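Tryptophan-tRNA ligase, Mycobacterium tuberculosis (UniProt P9WFT3). Enzyme assay of tryptophanyl-tRNA synthetase; the read-out is not stated. Concentration: 10 µM. Direction is not recorded; retested compounds ran higher, which suggests that high means inhibition. About 65,000 compounds were tested under these conditions; 0.098% (about 64) showed 50% or more at least once.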

Values are the deposited “Percent Effect”, in %.
How 0% and 100% were set is not recorded. Most values in the screen are low, and negative values occur.
The compounds are a random part of those screened.
A dash means the value is not listed here; it may have been measured.

structure,A,B,C,D
C[C@@H]1CN(C2(C(=O)N3CCCCCC3)Cc3ccccc3C2)C[C@H](C)O1,16.35%,5.907%,3.881%,-4.55%
CCS(=O)(=O)c1ccccc1N1CCC(NC(=O)NC2CCCC2)CC1,21.54%,5.396%,-1.669%,-0.2916%
O=c1c2ccccc2nc2n1CCN(Cc1cccs1)CC2,22.22%,0.5556%,3.445%,-0.4181%
CC(C)C1CN(C(=O)c2ccc3nccnc3c2)CCS1 (stereo not shown),22.58%,2.558%,2.712%,7.731%
COc1ccc(-c2nc(CN3CCCS3(=O)=O)co2)cc1,24.24%,2.959%,-5.38%,0.277%
CCN(CC)[C@@H]1CN(S(=O)(=O)c2cn(C)cn2)[C@@H]2CCCO[C@H]12,9.091%,1.208%,2.353%,-7.818%
Clc1cccc(-c2noc(CCN3CCN(c4ccncc4)CC3)n2)c1,22.41%,-41.76%,4.312%,-1.421%
CC(C)C(=O)N1CCC2(CN(CC3CCCC3)C2)C1,9.402%,4.167%,1.658%,-4.02%
NC(=O)CN(Cc1ccc(Br)cc1)C(=O)c1ccncc1,6.25%,-4.911%,5.146%,-8.978%
Cc1ccc(NC2CCN(C(=O)COCC3CC3)CC2)nn1,5.263%,-0.1242%,0.2893%,-0.5206%
Cc1cnn(C2CN(CC(=O)Nc3cccnc3)C2)c1,7.576%,-10.85%,5.29%,0.8772%
CCc1c(C)nc2cc(C3CCN(Cc4cccc(F)c4)C3)nn2c1O (stereo not shown),15.62%,2.451%,2.249%,-
Cn1cc(-c2cc(C(F)F)n3nc(CCC(=O)O)nc3n2)cn1,12.37%,0.1227%,2.694%,-
CCc1nnc(CN2CCOC(Cn3cc(C)cn3)C2)o1 (stereo not shown),8.036%,1.916%,0.2769%,0.2201%
CCc1ccc(C(=O)N2CCN(CC(O)CC)CC2)o1 (stereo not shown),12.73%,-1.276%,-3.678%,25.09%
COCCNC(=O)CN1CCC(N2CCN(C)C2=O)CC1,1.695%,2.362%,0.7893%,-5.501%
Cc1noc(C)c1C(=O)N1CCCC1c1c(C)nn(C)c1C (stereo not shown),11.86%,3.675%,2.473%,1.719%
CC(C)(C)C(=O)NCCCn1cncn1,15.32%,6.615%,14.78%,2.279%
Cc1nn(C)c(Oc2ccc(Cl)cc2)c1CN1CCC(CN)C1 (stereo not shown),5.263%,-22.58%,-3.013%,-5.094%
Cn1cncc1CN1CC[C@](C)(O)[C@@H](Oc2cccc(F)c2)C1,1.449%,-1.699%,-1.455%,-
CC(C)NCC1(O)CCCN(CCC2CCCCC2)C1=O (stereo not shown),5.6%,5.187%,-5.626%,3.116%
N#Cc1cccc(CN2Cc3nccn3CC(COCC3CC3)C2)c1 (stereo not shown),22.34%,-1.454%,1.641%,-3.004%
COCc1noc(Cn2c(C3CC3)nc3ccccc32)n1,-2.174%,-3.524%,-2.332%,0.1608%
CC(C)(C)C(=O)N[C@H]1C[C@@H](Cc2cc(CN3CCOCC3)on2)C1(C)C,11.11%,2.903%,5.973%,-5.855%
COc1ccc(OC)c(-c2nc(CN(C)Cc3nncn3C)c(C)o2)c1,21.15%,-4.904%,6.178%,-3.92%
Cc1ccc(C(=O)N2CC(c3cccnc3)C2)cc1N1CCNC1=O,9.375%,1.028%,11.23%,-0.2425%
CC(C)N1CCCC2(CCN(C(=O)CCCn3cncn3)C2)C1=O (stereo not shown),15.24%,-1.316%,4.357%,-2.757%
COc1cccc2c1OCC(CNC(=O)CN(C)C1CCCC1)C2 (stereo not shown),17.11%,2.804%,-1.254%,-1.274%
COc1ccc(F)cc1CN1CCCn2nc(CNS(C)(=O)=O)cc2C1,25%,2.381%,10.76%,-3.402%
COCCNC(=O)c1cc(C2CC2)nc2onc(C3CCNC3)c12 (stereo not shown),9.655%,4.474%,0.9104%,-3.371%
COCCCN1CC2(CCN(Cc3ncc[nH]3)CC2)CC1=O,12.82%,5.462%,-4.191%,-4.631%
CCCOC(C)C(=O)N1CCC(O)(c2ccc3nc(C)ccc3c2)CC1 (stereo not shown),15.15%,-8.481%,-4.124%,-1.016%
Cc1cnn(CC(C)NCC(=O)NCCOc2ccccc2)c1 (stereo not shown),18.42%,0.1304%,-2.275%,1.002%
Cc1ccn2ncc(C(=O)N3CCCC(n4ccnc4C)C3)c2n1 (stereo not shown),9.649%,-10.59%,-1.249%,-0.4237%
CCOCC1CN(C(=O)c2ccoc2)Cc2cnn(C)c21 (stereo not shown),-1.887%,-0.4878%,2.913%,-
Cc1c(F)cc(C(=O)O)cc1S(=O)(=O)Nc1ccc(C#N)cc1,-10.19%,-3.158%,0.4618%,16.18%
CCCNC(=O)c1cc2c(s1)CCN2C(=O)c1ccccc1,-68.06%,-8.508%,-3.373%,11.61%
Cc1nn(C)c(N2CCOCC2)c1CNCc1cscn1,16.07%,8.999%,-0.4196%,-6.591%
Cc1ncsc1CCC(=O)N1CCCC1c1cccnc1 (stereo not shown),14.29%,-0.4969%,1.775%,2.973%
CCOC(=O)c1ccc(S(=O)(=O)NCC(CC)N2CCCC2)cc1 (stereo not shown),25.33%,-11.33%,3.756%,-5.094%
CCS(=O)(=O)N1CCCC(c2nccn2Cc2cccnc2)C1 (stereo not shown),2.667%,-15.29%,7.251%,-0.09671%
O=C(NCC(O)c1ccoc1)Nc1cccs1 (stereo not shown),21.74%,2.663%,0.4322%,0.8223%
Cc1n[nH]c(SCC(=O)N[C@@H](C)C(N)=O)n1,0%,0%,-1.419%,3.59%
CN(C)c1cccc(C2CCN(C3COCC3O)CC2)n1 (stereo not shown),7.092%,-7.226%,1.526%,-4.606%
Cc1ccc(N(CCC#N)C(=O)CN2CCCC2c2ccsc2)cc1 (stereo not shown),22.02%,2.117%,-1.157%,1.161%
CCn1nc(C)cc1C(=O)N1CCOc2cc(C)ccc21,10.96%,13.43%,-0.08027%,-3.641%
Cc1nnc([C@@H]2C[C@H]3CN(C(=O)C4CC4)C[C@H]3O2)[nH]1,12.07%,-,5.96%,-5.933%
CC(c1nc(C2CC2)no1)N1CCN(Cc2cccnc2)CC1 (stereo not shown),15.09%,-0.6316%,5.896%,0.4946%
CC(C)CN1C(=O)C2(CCN(Cc3ccsc3)C2)c2ccccc21 (stereo not shown),21.92%,2.503%,4.518%,-4.241%
CCOCCN1CCC(C(=O)c2cc(F)ccc2F)CC1,18.18%,5.867%,-3.48%,4.9%
O=C1NCC[C@]12CN(Cc1ccco1)C[C@H]2c1ccccc1,19.3%,5.447%,2.663%,12.02%
CCCNCc1ccc(OCc2ccc3c(c2)OCCO3)cc1,17.5%,-2.152%,-3.139%,-3.39%
Cc1nn(C)c(C)c1C1COCCN1C(=O)c1ccccc1 (stereo not shown),10.96%,3.614%,-2.168%,-0.2398%
O=C(NCCNc1ccccn1)N1CCC(O)CC1,14.68%,3.113%,-0.5166%,2.225%
Cc1ccc(NC(=O)N(CCO)CCO)c(OCc2ccccc2)c1,15.52%,9.636%,-3.955%,15.33%
Cc1ccc(C)n1-c1c(C(=O)NCC(C)Cn2cccn2)cnn1C (stereo not shown),15.79%,2.785%,0.8394%,3.34%
O=C(NCCOCCO)c1cccnc1Oc1ccc(Cl)cc1,13.86%,0.2427%,-1.223%,-
CS(=O)(=O)N1CCc2c(cccc2NC(=O)Nc2ccccn2)C1,16.96%,7.438%,6.29%,-0.5069%
CC(=O)c1cccc(OCCCC(=O)N(C)Cc2cnc(C)s2)c1,20.55%,4.487%,1.33%,1.852%
CSc1ncc(CNC(C)c2cnn(-c3ccc(F)cc3F)c2C)cn1 (stereo not shown),10.83%,4.845%,4.053%,-3.907%
COC(=O)CCNC(=O)c1ccoc1CN1c2ccccc2CC1C (stereo not shown),-17.14%,4.946%,4.265%,0.08224%
CC(C)NC(=O)[C@@H]1CN(Cc2ccc3c(c2)OCO3)C[C@H]2OCC[C@H]21,17.95%,-0.4167%,1.259%,-3.315%
NC(=O)C1CCN(C(=O)CCSCc2ccccc2)CC1,8.392%,-1.453%,2.214%,2.546%
N#Cc1c(F)cccc1NCCCOCC1CCOCC1,9.948%,-0.4348%,-1.797%,-2.408%
Cc1ccsc1C(=O)N(C)Cc1ccncc1,14.29%,-4.183%,5.035%,0.3139%
COc1ccc(NC(=O)CSC(F)(F)F)cn1,11.11%,0.9804%,5.341%,1.235%

Some entries from above, unchanged:

* Cn1cncc1CN1CC[C@](C)(O)[C@@H](Oc2cccc(F)c2)C1 | A: 1.449%; B: -1.699%; C: -1.455%
* N#Cc1c(F)cccc1NCCCOCC1CCOCC1 | A: 9.948%; B: -0.4348%; C: -1.797%; D: -2.408%
* Cc1ccc(C(=O)N2CC(c3cccnc3)C2)cc1N1CCNC1=O | A: 9.375%; B: 1.028%; C: 11.23%; D: -0.2425%
* Cc1ccc(N(CCC#N)C(=O)CN2CCCC2c2ccsc2)cc1 (stereo not shown) | A: 22.02%; B: 2.117%; C: -1.157%; D: 1.161%
* CC(=O)c1cccc(OCCCC(=O)N(C)Cc2cnc(C)s2)c1 | A: 20.55%; B: 4.487%; C: 1.33%; D: 1.852%
* Cc1nn(C)c(N2CCOCC2)c1CNCc1cscn1 | A: 16.07%; B: 8.999%; C: -0.4196%; D: -6.591%
* CN(C)c1cccc(C2CCN(C3COCC3O)CC2)n1 (stereo not shown) | A: 7.092%; B: -7.226%; C: 1.526%; D: -4.606%
* Cc1c(F)cc(C(=O)O)cc1S(=O)(=O)Nc1ccc(C#N)cc1 | A: -10.19%; B: -3.158%; C: 0.4618%; D: 16.18%